The source of these data is PubChem BioAssay AID493014 (National Center for Advancing Translational Sciences (NCATS), 2011).

Structures are written as SMILES. The list shows a part of the results. These are further read-outs of the screen, such as a control signal, another cell line or another target. No call is given for them. The list favours compounds with an active or inconclusive main result. Words in brackets tell the shape of the fitted curve; partial curves, single points and poor fits give uncertain potencies.

The nature of the test: qHTS Assay to Find Inhibitors of Chronic Active B-Cell Receptor Signaling. To be noted: ABC-DLBCL IkBa-CBG/CBR reporter, luminescence ratio (green luciferase fused to IkBa over red control in TMD8 lymphoma cells), 4 h. Summed up:
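Concentration-response series (up to 46 uM) were applied to TMD8 dual-reporter cells for 4 h at 37C with doxycycline. Green/red ratio, after filter-overlap correction, defined %Activity; red signal alone was normalised to basal cells and zero luminescence.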

The mark [1] stands for this setting: measured here: CBR red luminescence, cell number.
Setting [2] is: measured here: IkBa-CBG green luminescence.

Turning to `Cn1nc(C(=O)Nc2cc(Cl)ccc2N2CCCC2)c2ccccc2c1=O`, the AC50 (in general, the concentration giving half of the maximal activity seen) under setting [1] is 7.31 µM [rising, partial curve, poor fit].

`COc1ccccc1NC(=O)NCc1ccc(C)n1C`: under setting [1], the AC50 is 5.62 µM [rising, single point].

`CCN(Cc1ccccc1)C(=O)c1[nH]c2ccc(OC)cc2c1C`: the half-maximal activity concentration (AC50) under setting [1] was 5.01 µM [rising, partial curve, poor fit].

With `COc1ccccc1CNC(=O)C(=O)NCC(c1ccco1)N1CCOCC1` (centres undefined), the concentration at half-maximal activity (AC50) under setting [1] is 12.6 µM [falling, partial curve, poor fit].

As to `CSc1nc(N)n2nc(-c3ccccc3)cc2n1`, the concentration at half-maximal activity (AC50) under setting [1] is 5.01 µM [falling, partial curve, poor fit].

Regarding `CCN(CC(=O)NCc1ccccc1Cl)CC(=O)Nc1c(F)cccc1F`, the concentration at half-maximal activity (AC50) under setting [1] was 0.794 µM [rising, full curve, poor fit].

`CCCOc1ccc(C2=NNC(=O)CC2)cc1`: under setting [1], the concentration at half-maximal activity (AC50) was 23.1 µM [rising, partial curve].

On to `COc1cccc(/C=N/NC(=O)c2cc(-c3cccn3C)n[nH]2)c1`, for which, under setting [1], the half-maximal activity concentration (AC50) is 5.01 µM [falling, partial curve, poor fit].

Turning to `Cc1nc(NC(=O)CSc2nnc(C3CC3)n2C)sc1C`, under setting [1], the AC50 is 5.01 µM [falling, partial curve].

For the compound `CC(C(=O)Nc1sc2c(c1C(=O)NCC1CCCO1)CCC2)N1C(=O)c2ccccc2C1=O` (centres undefined), the AC50 under setting [1] is 7.31 µM [falling, partial curve].

On to `CCOC(=O)c1cc(C#N)c(=S)[nH]c1C`, for which, under setting [1], the half-maximal activity concentration (AC50) was 20 µM [falling, single point].

For `O=C1Nc2ccccc2C12Nc1ccccc1S2` (centres undefined), under setting [1], the concentration at half-maximal activity (AC50) is 6.51 µM [rising, partial curve, poor fit].

Regarding `COc1cc(C(=O)Nc2cc(Cl)ccc2C)c(-n2cnnn2)cc1OC`, the AC50 under setting [1] is 23.1 µM [rising, partial curve, poor fit].

As to `Cc1onc(-c2ccccc2)c1NC(=O)N(CCC#N)Cc1ccccc1`, the AC50 under setting [1] is 12.6 µM [falling, partial curve, poor fit].

Consider `CCc1ccc(-c2cc(C)no2)cc1S(=O)(=O)NCCN1CCC(C)CC1`, for which, under setting [1], the AC50 was 3.98 µM [falling, single point].

On to `COC(=O)c1cc(Cl)nc2ccccc12`, for which the AC50 under setting [1] is 14.1 µM [rising, single point].

Consider `COc1ccc(C(=O)Nc2ccc(Cl)c(S(=O)(=O)N3CCOCC3)c2)cc1`, for which the AC50 under setting [1] was 18.4 µM [falling, single point].

As to `O=C(Cc1ccc(Br)cc1)c1ccc(O)cc1O`, the AC50 under setting [1] is 3.55 µM [rising, full curve, poor fit].

Regarding `COc1ccc(CCNC(=O)Cn2c(=O)cnc3ccccc32)cc1`, the half-maximal activity concentration (AC50) is, setting by setting: under setting [1], 25.1 µM [rising, single point]; under setting [2], 17.8 µM [falling, partial curve].

On to `CCOc1ccc(N=c2scc(-c3ccc(OC)cc3)n2CCO)cc1`, for which the AC50 under setting [1] was 3.26 µM [rising, single point].

On to `Cc1ccc(O)c(/C=N/NC(=O)COc2ccc3c(C)cc(=O)oc3c2)c1`, for which, under setting [1], the AC50 is 12.6 µM [rising, single point].

For the compound `COc1ccc(CCNS(=O)(=O)c2ccc(F)c(C(=O)Nc3ccc(Cl)cc3)c2)cc1OC`, under setting [1], the concentration at half-maximal activity (AC50) was 7.08 µM [falling, partial curve].

Consider `COc1ccc(CCN2C(=O)CN=C2Nc2ccc(F)cc2)cc1OC`, for which the AC50 under setting [1] is 12.6 µM [rising, single point].

As to `O=C(CNC(=O)C1COc2ccccc2O1)N/N=C/c1ccc(O)cc1O` (centres undefined), under setting [1], the half-maximal activity concentration (AC50) was 23.1 µM [rising, single point].

As to `COc1cccc(NC(=O)CSc2nc(=O)n(Cc3ccncc3)c3c2CCCC3)c1`, the half-maximal activity concentration (AC50) under setting [1] was 16.4 µM [falling, partial curve, poor fit].

On to `Nn1c(Cc2cccc3ccccc23)nnc1SCc1ccc(Cl)c(Cl)c1`, for which, under setting [1], the concentration at half-maximal activity (AC50) is 29.1 µM [falling, single point].

In the case of `O=C(c1cc2sccc2n1Cc1ccccc1)N1CCN(c2nc3ccccc3s2)CC1`, the AC50 under setting [1] is 6.31 µM [rising, single point].

Consider `CCc1c(C(=O)N/N=C/c2ccc(C)o2)csc1C`, for which the AC50 under setting [1] was 20.6 µM [falling, single point].

Regarding `Cn1c(NCCCO)nc2c(c1=O)C1(CCCCC1)Cc1ccccc1-2`, the half-maximal activity concentration (AC50) reads like this: under setting [1], 8.91 µM [rising, partial curve]; under setting [2], 35.5 µM [falling, partial curve, poor fit].

As for `c1ccc(-c2cc(CSc3nc4ccccc4[nH]3)on2)cc1`, under setting [1], the AC50 is 25.9 µM [rising, partial curve, poor fit].

With `CCC1(C)N=C(N)Nc2nc3cc(C)c(C)cc3n21` (centres undefined), the half-maximal activity concentration (AC50) under setting [1] was 11.2 µM [rising, single point].

As to `c1cc(Nc2cccc3nccnc23)c2nccnc2c1`, under setting [1], the concentration at half-maximal activity (AC50) was 6.31 µM [rising, single point].

For the compound `CC1CCCC(C)N1C(=O)COC(=O)c1ccccc1O` (centres undefined), the half-maximal activity concentration (AC50) under setting [1] was 14.6 µM [rising, partial curve].

For the compound `CCC(=O)Nc1ccccc1-c1nnn(CC(=O)N2c3ccccc3CC2C)n1` (centres undefined), under setting [1], the concentration at half-maximal activity (AC50) is 0.0731 µM [rising, full curve, poor fit].

Turning to `O=C(C1=C[C@H](C2CCCCC2)C[C@H](OCCCCO)O1)N1CCOCC1`, under setting [1], the AC50 was 5.62 µM [rising, full curve].

On to `O=C(NNC(=O)c1nc(Cl)ccc1Cl)c1ccc(F)cc1`, for which, under setting [1], the AC50 was 6.31 µM [falling, single point].

Take `Cc1[nH]c2ccccc2c1C(=O)C(=O)N1CCCc2ccccc21`: the AC50 under setting [1] is 11.6 µM [rising, partial curve, poor fit].

In the case of `Cc1ccc(S(=O)(=O)CCC(=O)Nc2sccc2C(N)=O)cc1`, the half-maximal activity concentration (AC50) under setting [2] was 5.8 µM [falling, partial curve, poor fit].

Turning to `CC(=O)CSc1ncnc2sc3c(c12)CCC3`, under setting [1], the concentration at half-maximal activity (AC50) was 2 µM [rising, partial curve, poor fit].

With `CCOC(=O)C(C)Oc1ccc(OCc2ccccc2)cc1` (centres undefined), the half-maximal activity concentration (AC50) under setting [1] is 1.58 µM [falling, partial curve, poor fit].

`COC(=O)c1ccc2c(c1)NC1=C(C(=O)CC(C)(C)C1)C(c1ccncc1)N2` (centres undefined): the AC50 under setting [2] was 25.9 µM [rising, partial curve, poor fit].

Regarding `COCCNC(=O)NC(=O)COC(=O)Cc1ccc2c(c1)OCCO2`, the AC50 under setting [1] was 9.2 µM [rising, partial curve, poor fit].
